In patent publication US20200115460A1:

How the values were obtained:
Experiment in all cases: Cell ELISA, 10 nM antibody
hINSR[L1]/hIGFIR (human) = target: hINSR[L1]/hIGFIR (human)
[1] = target: hIGFIR[L1-L2]/hINSR (human)
hINSR[L2]/hIGFIR (human) = target: hINSR[L2]/hIGFIR (human)
[2] = target: hINSR[L1-L2]/hIGFIR (human)

Measured: binding

B1: IGF11-16 (antibody, mouse IgG1, kappa, V domains shown)
VH: QIQLQQPGAELVKPGASVKLSCKAPGYTFTSYWMHWVKQRPGQGLEWIGETNPSNSVTNYNEKFKSKATLTVDKSSSTAYMQLSSLTSEDSAVYYCTIGRGRGFAYWGQGTLVTVSA
VL: DIQMNQSPSSLSASLGDTITITCRASQNINFWLSWCQQKPGNIPKLLIYKASNLHTGVPSRFSGSGSGTDFTLTISSLQPEDIATYYCLQGQSYPYTFGGGTKLEIKR
binds: all assays above

These are yes or no findings as the source states them, for the method shown. Binding can be weak; no strength is given.
